In article PMC2278140, “Regulation of the cd38 promoter in human airway smooth muscle cells by TNF-α and dexamethasone”:
The exact form of at least one protein or probe is not confirmed. For some of these results: A negative result means that nothing was seen under these conditions. For some of these results: Where a protein sequence is shown, tags need not be part of it. For some of these results: At least one result comes from cells or an extract, where the contact may be indirect. For some of these results: At least one verdict rests on a figure or table, not on a statement of the authors.

Sequences of proteins named here, by UniProt entry; tags and fusion partners are left off.
UniProt P01100, whole entry: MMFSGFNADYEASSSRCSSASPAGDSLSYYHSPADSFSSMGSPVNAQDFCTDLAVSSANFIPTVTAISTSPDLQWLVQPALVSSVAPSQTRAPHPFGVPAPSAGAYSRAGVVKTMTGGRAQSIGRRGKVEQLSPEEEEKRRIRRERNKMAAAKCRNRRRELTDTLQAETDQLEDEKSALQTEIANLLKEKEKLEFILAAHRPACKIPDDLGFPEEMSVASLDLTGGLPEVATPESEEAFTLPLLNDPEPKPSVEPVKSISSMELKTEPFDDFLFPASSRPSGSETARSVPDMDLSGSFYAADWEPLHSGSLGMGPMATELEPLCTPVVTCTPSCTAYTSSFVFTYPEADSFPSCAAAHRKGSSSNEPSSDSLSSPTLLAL
UniProt P05412, whole entry: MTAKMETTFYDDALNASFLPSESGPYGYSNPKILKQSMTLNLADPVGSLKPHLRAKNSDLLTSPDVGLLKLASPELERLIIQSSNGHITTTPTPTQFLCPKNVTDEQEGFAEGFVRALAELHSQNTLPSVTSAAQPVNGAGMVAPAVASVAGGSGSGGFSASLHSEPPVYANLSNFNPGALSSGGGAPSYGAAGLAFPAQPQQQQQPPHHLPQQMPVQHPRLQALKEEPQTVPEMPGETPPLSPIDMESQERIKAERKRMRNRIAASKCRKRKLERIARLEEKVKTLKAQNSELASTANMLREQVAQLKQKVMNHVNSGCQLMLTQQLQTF

Tests used:
[1] = biological target: T1, glucocorticoid receptor (GR) (human) (UniProt P04150); experiment: competition with a labelled probe; settings: excess unlabeled vs labeled GRE consensus; 20% glycerol, 5 mM MgCl2, 2.5 mM EDTA, 2.5 mM DTT, 250 mM NaCl, 50 mM Tris-HCl pH 7.5, 0.25 mg/ml poly(dI-dC), room temperature 30 min; 0.4 pmol probe in 10 μl; commercial protein; label: 32P 5' end
T1 sequence (looked up, limits assumed): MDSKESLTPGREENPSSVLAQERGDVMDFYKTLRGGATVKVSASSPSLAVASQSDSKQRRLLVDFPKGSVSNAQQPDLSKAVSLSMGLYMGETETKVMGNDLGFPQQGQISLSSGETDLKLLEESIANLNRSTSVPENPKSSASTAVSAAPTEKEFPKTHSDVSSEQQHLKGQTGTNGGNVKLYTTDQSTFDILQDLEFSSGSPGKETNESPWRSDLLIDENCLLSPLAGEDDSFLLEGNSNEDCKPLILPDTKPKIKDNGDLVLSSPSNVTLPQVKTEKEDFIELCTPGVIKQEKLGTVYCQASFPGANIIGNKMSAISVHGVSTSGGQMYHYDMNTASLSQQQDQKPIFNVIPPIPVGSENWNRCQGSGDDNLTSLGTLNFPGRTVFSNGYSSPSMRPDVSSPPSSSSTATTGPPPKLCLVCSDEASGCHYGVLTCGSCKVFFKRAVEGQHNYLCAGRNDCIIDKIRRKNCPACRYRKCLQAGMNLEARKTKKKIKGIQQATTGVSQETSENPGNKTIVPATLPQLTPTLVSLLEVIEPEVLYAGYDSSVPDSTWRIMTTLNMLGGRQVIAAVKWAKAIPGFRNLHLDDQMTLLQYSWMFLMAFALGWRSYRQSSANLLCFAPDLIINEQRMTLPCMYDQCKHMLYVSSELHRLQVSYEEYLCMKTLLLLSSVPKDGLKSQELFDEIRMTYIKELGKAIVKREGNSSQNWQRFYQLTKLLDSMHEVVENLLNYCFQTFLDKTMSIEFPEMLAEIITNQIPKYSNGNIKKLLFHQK

[2] = biological target: c-Fos (AP-1 complex) (human) (UniProt P01100); experiment: EMSA supershift; settings: anti-c-Fos; 20% glycerol, 5 mM MgCl2, 2.5 mM EDTA, 2.5 mM DTT, 250 mM NaCl, 50 mM Tris-HCl pH 7.5, 0.25 mg/ml poly(dI-dC), room temperature 30 min; 0.4 pmol probe in 10 μl; protein in an extract; label: 32P 5' end
[3] = biological target: c-Fos (AP-1 complex) (human) (UniProt P01100); experiment: competition with a labelled probe; settings: excess unlabeled self vs labeled AP1-4; 20% glycerol, 5 mM MgCl2, 2.5 mM EDTA, 2.5 mM DTT, 250 mM NaCl, 50 mM Tris-HCl pH 7.5, 0.25 mg/ml poly(dI-dC), room temperature 30 min; 0.4 pmol probe in 10 μl; protein in an extract; label: 32P 5' end
[4] = biological target: c-Jun (AP-1 complex) (human) (UniProt P05412); experiment: competition with a labelled probe; settings: excess unlabeled vs labeled AP-1 consensus, 20% glycerol, 5 mM MgCl2, 2.5 mM EDTA, 2.5 mM DTT, 250 mM NaCl, 50 mM Tris-HCl pH 7.5, 0.25 mg/ml poly(dI-dC), room temperature 30 min, 0.4 pmol probe in 10 μl, protein in an extract
[5] = biological target: c-Jun (AP-1 complex) (human) (UniProt P05412); experiment: EMSA supershift; settings: anti-c-Jun, TNF-α-treated cells; 20% glycerol, 5 mM MgCl2, 2.5 mM EDTA, 2.5 mM DTT, 250 mM NaCl, 50 mM Tris-HCl pH 7.5, 0.25 mg/ml poly(dI-dC), room temperature 30 min; 0.4 pmol probe in 10 μl; protein in an extract; label: 32P 5' end

Question: Does “GCCATTGTAACTGTTCTCCATCCTTATC (double strand) [GRE4]” bind [1]?
Answer: no binding

Question: What does the source list for “ATCATCTTTGACTCATCTCTTTC (double strand) [AP1-4]”?
Answer: binding result [2]: binds; binding result [3]: binds; binding result ([4]; label: 32P 5' end): binds

Question: Does “AAGCACTGCCATGTTCTCACTTATAAGT (double strand) [GRE3]” bind [1]?
Answer: no binding

Question: Does “CAATTCTTGAATCATGCCTCT (double strand) [AP1-6]” bind [4]?
Answer: binds

Question: Does “CGCTTGATGACTCAGCCGGAA (double strand) [AP-1 consensus]” bind [5]?
Answer: binds
